Experimental data published in US20250332264A1, “GhR-BINDING PEPTIDE AND COMPOSITION COMPRISING SAME” (priority 2021, published 2025).
pKd: −log10 of the molar value. Part of at least one peptide drawing is inferred or uncertain, most often the ends. Starred links: 1 amine or outer side, 2 acyl side, 3 side chain; linkers in the order of their positions; H or OH if unused. Positions of bridges follow the written chain, without caps; N, C: chain ends. Non-standard residues stand in square brackets, D forms with d. Residues, ends and D or L forms follow the SMILES beside them. Groups on a side chain read outwards from the residue. *: point of attachment. Trp(5-OMe) = COc1ccc2[nH]cc(C[C@H](N)C(=O)O)c2c1; Butanoyl(4-(4-I-phenyl)) = O=C(CCCc1ccc(I)cc1)*; Trp(5-OH) = N[C@@H](Cc1c[nH]c2ccc(O)cc12)C(=O)O; Phe(4-COOH) = N[C@@H](Cc1ccc(C(=O)O)cc1)C(=O)O; Trp(7-aza) = N[C@@H](Cc1c[nH]c2ncccc12)C(=O)O; X7 = O=C(O)CN1CCC(N[*:1])(C(=O)[*:2])CC1; γGlu = O=C(O)[C@H](CCC(=O)[*:2])N[*:1]; 4Pal = N[C@@H](Cc1ccncc1)C(=O)O; NMeK = CN[C@@H](CCCCN)C(=O)O; Aib = CC(C)(N)C(=O)O

The chains behind the UniProt entries cited, without tags or fusion partners. A line that says so, or that is headed by a name, gives the form on record, which may keep a tag or linker.
UniProt P10912, with tags, fused parts or gaps limits assumed: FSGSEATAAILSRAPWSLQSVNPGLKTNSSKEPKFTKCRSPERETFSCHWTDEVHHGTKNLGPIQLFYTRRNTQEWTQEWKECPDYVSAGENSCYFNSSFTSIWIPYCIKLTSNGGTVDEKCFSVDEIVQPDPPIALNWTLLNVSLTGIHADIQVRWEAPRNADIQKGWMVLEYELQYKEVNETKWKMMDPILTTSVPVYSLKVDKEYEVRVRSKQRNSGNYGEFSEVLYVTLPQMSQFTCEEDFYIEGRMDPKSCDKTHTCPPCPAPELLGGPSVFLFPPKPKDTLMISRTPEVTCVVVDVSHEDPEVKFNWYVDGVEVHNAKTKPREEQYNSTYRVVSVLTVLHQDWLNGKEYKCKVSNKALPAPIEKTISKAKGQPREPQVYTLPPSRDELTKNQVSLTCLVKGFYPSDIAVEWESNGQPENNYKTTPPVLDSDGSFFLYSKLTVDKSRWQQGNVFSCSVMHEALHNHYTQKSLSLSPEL

Target: T1, Recombinant human GhR-Fc protein (Homo sapiens, UniProt P10912)
T1 construct: purchased R&D Systems
Test: Binding activity of hGhR binding peptide by surface plasmon resonance (SPR), Biacore T200, single-cycle kinetics
Settings: human GhR-Fc immobilized on CM5 chip, KD calculated from ka and kd
Experimental: SPR assay was performed using Biacore T200 (cytiva: Former GE Healthcare). After the equilibration of Series S Sensor Chip CM5 (produced by cytiva: Former GE Healthcare) with Running Buffer (HBS-EP with 1% (v/v) DMSO), an EDC/NHS mixture was injected at a flow rate of 10 μL/min for 7 minutes to thereby activate the functional groups on sensor chip. Recombinant human GhR-Fc protein (R&D Systems) in 10 mM Acetate (pH4.0) was injected immobilized to at a flow rate of 5 μL/min. It took 7 minutes to immobilize the GhR on the substrate surfaces of the sensor chip. Then Ethanolamine was injected at a flow rate of 10 μL/min for 7 minutes. 1M Ethanolamine (aq.) was injected at a flow rate of 10 μL/min for 420 seconds for capping.
Using these Peptide Samples, kinetics of peptides against human GhR-Fc protein were measured. The method adopted for sample measurement was a single-cycle kinetics method. The analysis was conducted using the evaluation software provided with Biacore T200. A DMSO correction curve obtained by solvent correction measurements was applied for the analysis. Kinetics fitting was done on the difference data obtained by subtracting the baseline data from sample measurement data. KD values were calculated based on the association rate constant (ka) and dissociation rate constant (kd).
Furthermore, “obs. m/z [M+2H]2+” indicates the ESI-MS(+) observed value. […]

SMILES	pKd
CC(C)[C@@H]1NC(=O)[C@H](C(C)C)NC(=O)[C@H](CCCCNC(=O)CC[C@H](NC(=O)CCCc2ccc(I)cc2)C(=O)O)N(C)C(=O)[C@H](Cc2ccncc2)NC(=O)CSC[C@@H](C(N)=O)NC(=O)[C@H](C(C)C)NC(=O)C(C)(C)NC(=O)[C@H](Cc2c[nH]c3ccc(O)cc23)NC(=O)[C@H](CCCCN)NC(=O)[C@H](Cc2ccc(C(=O)O)cc2)NC(=O)[C@H](Cc2c[nH]c3ncccc23)NC(=O)[C@H](CC(N)=O)NC(=O)[C@H](CO)NC1=O [Compound 33] ({CH2CO}-[4Pal][NMeK]([γGlu-Butanoyl(4-(4-I-phenyl))])VVSN[Trp(7-aza)][Phe(4-COOH)]K[Trp(5-OH)][Aib]VC-NH2; thioether N-13; C-terminus assumed)	8.03
COc1ccc2[nH]cc(C[C@@H]3NC(=O)[C@H](CC(N)=O)NC(=O)[C@H](CO)NC(=O)[C@H](C(C)C)NC(=O)[C@H](C(C)C)NC(=O)[C@H](CCCCNC(=O)CC[C@H](NC(=O)CCCc4ccc(I)cc4)C(=O)O)N(C)C(=O)[C@H](Cc4ccc(O)cc4)NC(=O)CSC[C@@H](C(N)=O)NC(=O)[C@H](C(C)C)NC(=O)C4(CCN(CC(=O)O)CC4)NC(=O)[C@H](Cc4c[nH]c5ccc(O)cc45)NC(=O)[C@H](CCCCN)NC(=O)[C@H](Cc4ccc(O)cc4)NC3=O)c2c1 [Compound 45] ({CH2CO}-Y[NMeK]([γGlu-Butanoyl(4-(4-I-phenyl))])VVSN[Trp(5-OMe)]YK[Trp(5-OH)][X7]VC-NH2; thioether N-13; C-terminus assumed)	8.47
